Assay results as given in patent US7488716B2 (priority 2001, dated 2009).
For part of these data: For at least one compound, name, drawing or mass did not settle the structure. Some results were stated once for a whole list of compounds, not compound by compound. Where a SMILES comes first, the peptide text is derived from it. Where no end group is shown, it is not given here. The star is where a group is joined. Palmitoyl = CCCCCCCCCCCCCCCC(=O)*

Chains of the proteins cited; added tags and fusions are not shown. Residues count along the entry.
UniProt P30082, 27-485: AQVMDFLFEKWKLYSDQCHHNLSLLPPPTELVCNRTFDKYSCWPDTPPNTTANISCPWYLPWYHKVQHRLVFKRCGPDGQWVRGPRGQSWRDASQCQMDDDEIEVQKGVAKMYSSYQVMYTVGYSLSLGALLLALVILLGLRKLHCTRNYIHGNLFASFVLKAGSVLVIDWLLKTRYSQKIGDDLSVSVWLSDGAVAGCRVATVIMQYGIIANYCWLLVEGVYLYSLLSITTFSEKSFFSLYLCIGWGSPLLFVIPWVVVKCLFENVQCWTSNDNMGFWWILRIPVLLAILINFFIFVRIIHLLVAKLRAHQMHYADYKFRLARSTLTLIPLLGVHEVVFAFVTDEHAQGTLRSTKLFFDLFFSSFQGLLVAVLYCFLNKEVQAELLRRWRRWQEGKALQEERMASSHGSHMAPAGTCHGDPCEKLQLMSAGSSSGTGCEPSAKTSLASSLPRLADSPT

How the values were obtained:
[1] = target: T1, glucagon receptor (Rattus norvegicus, UniProt P30082); assay: Competitive binding of peptide to the glucagon receptor in rat liver plasma membranes (125I glucagon); settings: read-out: Glucagon Liver IC50, displacement of 125I glucagon
T1 construct: glucagon receptor present in the plasma membranes isolated from rat liver; from tissue; host or cells: rat liver plasma membranes
Protocol: The wet weight of the livers was determined and the tissue minced in 5 volumes of ice cold TES buffer and a slurry prepared using a polytron. All buffers and spins were kept at 4° C. The slurry was further homogenized using three strokes of a handheld dounce homogenizer. The homogenate was passed through several layers of cheesecloth and spun at 25,000×g for 10 minutes. Pellets were homogenized in 22.1 ml TES buffer using 10 strokes of a handheld dounce homogenizer. Twenty-seven point nine milliliters of 2.4 M sucrose in TE was added and mixed well. The homogenate was distributed among several tubes, and each tube was overlaid with 7 ml of TES buffer. The tubes were spun at 120,000×g for 60 minutes. The plasma membranes were removed from the interface that formed during the spin, diluted in TES and concentrated using a 15 minute spin at 200,000×g. The resulting pellet was again homogenized in 9.8 ml TES buffer, combined with 10.3 ml 2.4M sucrose, overlaid with 7 ml TES, and centrifuged at 180,000×g for 30 min. […] The final pellet was resuspended in TES. Plasma membranes were stored at −80° C. until ready for use.
Competitive binding of some polypeptides of the invention to rat liver plasma membranes was measured as follows. […] The plates were dried, scintillant was added to each well, and cpm per well determined using a Wallac Microbeta counter.

[2] = target: T2, GLP-1 receptor (Rattus norvegicus, UniProt P32301); assay: Competitive binding of peptide to the GLP-1 receptor in RINm5F cell plasma membranes (125I GLP-1); settings: displacement of 125I GLP-1, read-out: GLP1 RIN IC50
T2 construct: endogenous in cells; host or cells: RINm5F cells
T2 sequence (P32301 22-463): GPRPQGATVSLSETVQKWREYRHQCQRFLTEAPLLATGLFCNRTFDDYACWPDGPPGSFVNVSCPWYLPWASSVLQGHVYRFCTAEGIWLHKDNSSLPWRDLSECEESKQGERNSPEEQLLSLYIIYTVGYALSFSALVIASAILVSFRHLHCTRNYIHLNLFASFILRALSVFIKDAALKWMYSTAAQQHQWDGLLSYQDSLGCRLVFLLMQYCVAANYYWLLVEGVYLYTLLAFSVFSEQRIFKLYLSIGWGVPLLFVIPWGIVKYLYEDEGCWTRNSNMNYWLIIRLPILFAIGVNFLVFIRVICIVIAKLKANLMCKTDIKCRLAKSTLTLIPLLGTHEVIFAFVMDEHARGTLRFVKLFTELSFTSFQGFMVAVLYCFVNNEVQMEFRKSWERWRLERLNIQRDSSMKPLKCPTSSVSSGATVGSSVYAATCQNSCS
Protocol: Flasks of RINm5F cells were washed with PBS, scraped in 20 mM Hepes-1 mM EDTA-250 mM sucrose buffer containing protease inhibitors (HES) and homogenized in a dounce homogenizer followed by repeated resuspension through a 23 gauge needle. Unbroken cells and nuclei were removed by centrifugation at 500×g for 5 minutes. The pellet was resuspended in HES buffer using a 23 gauge needle and the centrifugation was repeated. The supernatants from the two spins were combined and centrifuged at 40,000×g for 20 min. The resulting plasma membrane pellet was resuspended in HES buffer using a 23 gauge needle followed by a 25 gauge needle. Membranes were stored at −80° C. until use.
Competitive binding of some polypeptides of the invention to RINm5F cell plasma membranes was measured as follows. Ninety-six-well GF/C filtration plates (Millipore, Bedford, Mass.) were blocked with 0.3% PEI for at least one hour and washed twice with binding buffer consisting of 20 mM Tris, 2 mM EDTA, pH 7.5, 1 mg/ml BSA, and 1 mg/ml bacitracin. […] The plates were dried, scintillant was added to each well, and cpm per well determined using a Wallac Microbeta counter.

[3] = Plasma insulin levels during in vivo glucose tolerance testing (IVGTT) in fasted Wistar rats; set-up: species or system rat; settings: 1 nmol/kg iv with 0.4 g/kg glucose, one minute

Row | Compound | IC50 [1] | IC50 [2] | Promotion of insulin secretion (plasma insulin) during IVGTT [3]
1 | CCCCCCCCCCCCCCCC(=O)NCCCC[C@H](NC(=O)[C@H](C)NC(=O)[C@H](CCCNC(=N)N)NC(=O)[C@H](CCCNC(=N)N)NC(=O)[C@H](C)NC(=O)[C@H](CC(=O)O)NC(=O)[C@H](CC(C)C)NC(=O)[C@H](Cc1ccc(O)cc1)NC(=O)[C@H](CCCNC(=N)N)NC(=O)[C@H](C)NC(=O)[C@H](Cc1ccc(O)cc1)NC(=O)[C@H](CC(=O)O)NC(=O)[C@H](CO)NC(=O)[C@@H](NC(=O)[C@H](Cc1ccccc1)NC(=O)[C@@H](NC(=O)CNC(=O)[C@H](CCC(N)=O)NC(=O)[C@H](CO)NC(=O)[C@@H](N)Cc1c[nH]cn1)[C@@H](C)O)[C@@H](C)O)C(=O)N[C@@H](CCC(=O)O)C(=O)N[C@@H](Cc1ccccc1)C(=O)N[C@H](C(=O)N[C@@H](CCCCN)C(=O)N[C@@H](Cc1c[nH]c2ccccc12)C(=O)N[C@@H](CC(C)C)C(=O)N[C@H](C(=O)N[C@@H](CCCNC(=N)N)C(=O)NCC(=O)N[C@@H](CCCNC(=N)N)C(=O)NCC(=O)O)C(C)C)[C@@H](C)CC [G183] (H-HSQGTFTSDYARYLDARRAK(Palmitoyl)EFIKWLVRGRG-OH; N-terminus and C-terminus assumed) | 0.663 µM | 0.159 µM | –
2 | HSQGTFTSDYAKYLDARRAKEFIAWLVKGR-NH2 [G27] | – | – | 3-4 fold
